PubChem BioAssay AID1159578 | Peter MacCallum Cancer Centre – 2015
Test: 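siRNA pools altering how lymphatic endothelial cells close a scratch wound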 (primary screen). System: human lymphatic endothelial cells. Knock-down reagent: siRNA pool against human genes, 40 nM. Timing: 48 h after transfection. Measurement: 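Cells stained with dye and imaged after a scratch; covered wound area and nuclei counted, duplicates averaged, migration set against mock wells and turned into a robust z-score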. Direction: migration robust z-score: higher = faster migration into the scratch; migration relative to mock: higher = more scratch area covered than mock; nuclei per well: higher = more cells in the well. Call rule: 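Pools averaging fewer than 3300 nuclei are never called; remaining pools count as changed when migration robust z lies outside -2 to 2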. Meaning of the calls: active = migration changed; inactive = no migration change, or too few cells.
Here is an unselected part of about 18,000 deposited reagents. In the full data, about 1,030 (5.7%) are marked active. 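Inactive calls also include pools with fewer than 3300 nuclei, whose migration was not assessed.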 Raw values vary from plate to plate and are shown uncorrected.

target gene,migration robust z-score,migration class with cell-count check,migration relative to mock,"nuclei per well, duplicate mean",Outcome
PDE6D (phosphodiesterase 6D),0.39,migration z between -2 and 2; enough cells,0.88,6934,inactive
GGA2,-1.17,migration z between -2 and 2; enough cells,0.58,5392,inactive
ALX1 (ALX homeobox 1),-1.38,migration z between -2 and 2; enough cells,0.54,4328,inactive
SERBP1 (SERPINE1 mRNA binding protein 1),0.32,migration z between -2 and 2; enough cells,0.97,5488,inactive
CDC123 (cell division cycle 123),-0.7,migration z between -2 and 2; enough cells,0.7,5146,inactive
TECTB (tectorin beta),-2.05,migration z below -2; enough cells,0.36,4429,active
TMED3 (transmembrane p24 trafficking protein 3),-0.69,migration z between -2 and 2; enough cells,0.7,5244,inactive
"LSM10 (LSM10, U7 small nuclear RNA associated)",1.4,migration z between -2 and 2; enough cells,1.25,5271,inactive
DHX38 (DEAH-box helicase 38),0.54,migration z between -2 and 2; enough cells,0.91,7432,inactive
SMPDL3B (sphingomyelin phosphodiesterase acid like 3B),0.18,migration z between -2 and 2; enough cells,0.84,4958,inactive
ADRB3 (adrenoceptor beta 3),-0.36,migration z between -2 and 2; enough cells,0.74,5916,inactive
JPH4 (junctophilin 4),-0.36,migration z between -2 and 2; enough cells,0.8,5395,inactive
CD300A (CD300a molecule),-0.54,migration z between -2 and 2; enough cells,0.74,5476,inactive
RPL27A (ribosomal protein L27a),-1.68,migration z between -2 and 2; enough cells,0.45,4562,inactive
AKAP3 (A-kinase anchoring protein 3),0.68,migration z between -2 and 2; enough cells,0.94,5662,inactive
ZNF557 (zinc finger protein 557),0.98,migration z between -2 and 2; enough cells,1.14,5703,inactive

3 of these entries, set out differently:
{"target gene":"ADRB3 (adrenoceptor beta 3)","migration robust z-score":-0.36,"migration class with cell-count check":"migration z between -2 and 2; enough cells","migration relative to mock":0.74,"nuclei per well, duplicate mean":5916,"Outcome":"inactive"}
{"target gene":"JPH4 (junctophilin 4)","migration robust z-score":-0.36,"migration class with cell-count check":"migration z between -2 and 2; enough cells","migration relative to mock":0.8,"nuclei per well, duplicate mean":5395,"Outcome":"inactive"}
{"target gene":"CD300A (CD300a molecule)","migration robust z-score":-0.54,"migration class with cell-count check":"migration z between -2 and 2; enough cells","migration relative to mock":0.74,"nuclei per well, duplicate mean":5476,"Outcome":"inactive"}

Further records:
target gene,migration robust z-score,migration class with cell-count check,migration relative to mock,"nuclei per well, duplicate mean",Outcome
USP43 (ubiquitin specific peptidase 43),0.1,migration z between -2 and 2; enough cells,0.82,5796,inactive
DGKQ (diacylglycerol kinase theta),-0.62,migration z between -2 and 2; enough cells,0.68,3939,inactive
FIBIN (fin bud initiation factor homolog),-1.08,migration z between -2 and 2; enough cells,0.6,4894,inactive
PPRC1 (PPARG related coactivator 1),1.11,migration z between -2 and 2; enough cells,1.18,5095,inactive
CDK10 (cyclin dependent kinase 10),-5.37,under 3300 nuclei; migration not judged,-0.23,1957,inactive
NPBWR2 (neuropeptides B and W receptor 2),-0.9,migration z between -2 and 2; enough cells,0.63,5714,inactive
MSH3 (mutS homolog 3),-0.78,migration z between -2 and 2; enough cells,0.66,4959,inactive
OSMR (oncostatin M receptor),0.32,migration z between -2 and 2; enough cells,0.86,6464,inactive
GXYLT2 (glucoside xylosyltransferase 2),0.12,migration z between -2 and 2; enough cells,0.92,5714,inactive
SMARCD2 (SWI/SNF related BAF chromatin remodeling complex subunit D2),0.86,migration z between -2 and 2; enough cells,0.97,5058,inactive
CEACAM19 (CEA cell adhesion molecule 19),0.34,migration z between -2 and 2; enough cells,0.98,5930,inactive
VDAC1 (voltage dependent anion channel 1),0.57,migration z between -2 and 2; enough cells,0.92,5640,inactive
ZNF286A (zinc finger protein 286A),0.97,migration z between -2 and 2; enough cells,1.14,6781,inactive
ZNF92 (zinc finger protein 92),0.51,migration z between -2 and 2; enough cells,1.02,5436,inactive
EEPD1,0.52,migration z between -2 and 2; enough cells,1.02,5140,inactive
OXER1 (oxoeicosanoid receptor 1),0.7,migration z between -2 and 2; enough cells,0.94,5855,inactive
GFOD2 (Gfo/Idh/MocA-like oxidoreductase domain containing 2),-0.94,migration z between -2 and 2; enough cells,0.62,4954,inactive
RHEBL1 (RHEB like 1),0.22,migration z between -2 and 2; enough cells,0.94,4676,inactive
ALG1 (ALG1 chitobiosyldiphosphodolichol beta-mannosyltransferase),-0.7,migration z between -2 and 2; enough cells,0.67,5762,inactive
MAGEB4 (MAGE family member B4),1.4,migration z between -2 and 2; enough cells,1.25,5594,inactive
NFKBIL1 (NFKB inhibitor like 1),-0.16,migration z between -2 and 2; enough cells,0.77,6680,inactive
BTNL2 (butyrophilin like 2),0.74,migration z between -2 and 2; enough cells,1.08,5614,inactive
TTC39A (tetratricopeptide repeat domain 39A),-0.16,migration z between -2 and 2; enough cells,0.84,7439,inactive
